Assay results published in PubChem BioAssay AID1347076 (National Center for Advancing Translational Sciences (NCATS), 2019).
About 13,000 (3.2%) of roughly 400,000 compounds were called active. The inconclusive results got no clear call from the source; some entries with a clear call stand among them for comparison. Calls come from the whole dose curve; as a rule, active = well fitted cell-killing curve with a large enough effect; inconclusive = small, poorly fitted or top-dose-only effect, or effect the other way; inactive = flat fitted curve, though single readings scatter. Potencies of inconclusive entries are doubtful fits and often do not repeat.

assay: qHTS assay for MDR1-selective chemotherapeutics: Primary screen using the drug-selected MDR subline cells KB-V1; conditions: KB-V1 MDR cells viability, CellTiter-Glo, 72 h; series mostly up to 46.1 µM; note: nearly all actives have a fitted effect of over 60% in size
How it was run: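 Cytotoxicity toward P-gp-expressing KB-V1 cells was determined as loss of CellTiter-Glo luminescence after 72 h at 37 degrees C. Compounds were tested in quantitative HTS format across a concentration range, with curves fitted to normalized data.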
Potency is the fitted concentration of half-maximal effect.

SMILES	Potency
COc1cc(OC)c(NC(=O)CSc2nccn2C)cc1Cl	inconclusive: 11.6 µM [cytotoxic, partial curve]
C/C(=N/NC(N)=S)c1ccc(Br)s1	active: 8.2 µM
Cc1ccc(N(CC(=O)NC2CCCC2)C(=O)CNC(=O)c2cccs2)cc1F	inconclusive: 13 µM [cytotoxic, partial curve, poor fit]
COc1ccc2oc(-c3ccc(C)c(NC(=O)c4cccnc4)c3)nc2c1	inconclusive: 20.6 µM [rising, single point]
Oc1ccccc1N1CCN(c2ncnc3scc(-c4ccccc4)c23)CC1	inconclusive: 20.6 µM [cytotoxic, single point]
O=C(CN1C(=O)NC2(CCCC2)C1=O)Nc1cccc(Cl)c1	inconclusive: 25.9 µM [rising, single point]
CNC(=O)c1ccc2c(c1)N=C(C)c1cc(C)ccc1S2	inconclusive: 29.1 µM [cytotoxic, single point]
CC(C)CNS(=O)(=O)c1cc(C(=O)OCC(=O)c2ccc3c(c2)OCCO3)c(Cl)cc1Cl	inactive
O=C(NCc1ccco1)C1CCN(S(=O)(=O)c2cccc([N+](=O)[O-])c2)CC1	inconclusive: 5.8 µM [rising, partial curve, poor fit]
O=C(CSc1nc2cc(C(=O)NC3CCCC3)ccc2c(=O)n1CC1CCCO1)c1ccc(F)cc1 (stereo not drawn)	inconclusive: 23.1 µM [rising, partial curve, poor fit]
Cc1ccc(C(=O)Nc2nc3ccc(S(C)(=O)=O)cc3s2)s1	inconclusive: 23.1 µM [cytotoxic, single point]
Cc1cccc(NC(=O)C2CCCN(C(=O)NCc3ccccc3)C2)c1C (stereo not drawn)	inconclusive: 16.4 µM [cytotoxic, single point]
N=c1sccn1CC(=O)Nc1ccc(S(=O)(=O)N2CCOCC2)cc1	inconclusive: 29.1 µM [cytotoxic, single point]
COc1cccc(N(C(=O)c2ccn[nH]2)C2(C(=O)Nc3c(C)cccc3C)CCCCC2)c1	inconclusive: 29.1 µM [cytotoxic, single point]
CC(C)CN(Cc1c(O)ccc2c3c(c(=O)oc12)CCC3)CC(C)C	inconclusive: 4.11 µM [cytotoxic, partial curve, poor fit]
Cc1[nH]c(=S)[nH]c(=O)c1Cc1c(O)ccc2ccccc12	inactive
CCCn1cnc2c(SCc3ccccc3Cl)nc(N)nc21	inconclusive: 16.4 µM [cytotoxic, single point]
Cc1cc(C(=O)COC(=O)c2ccc(O)cc2)c(C)n1CCc1ccc(F)cc1	inconclusive: 16.4 µM [cytotoxic, partial curve]

Ordered by molar mass (ascending): 3 of the compounds above
SMILES	Potency
O=C(CN1C(=O)NC2(CCCC2)C1=O)Nc1cccc(Cl)c1	inconclusive: 25.9 µM [rising, single point]
COc1ccc2oc(-c3ccc(C)c(NC(=O)c4cccnc4)c3)nc2c1	inconclusive: 20.6 µM [rising, single point]
O=C(CSc1nc2cc(C(=O)NC3CCCC3)ccc2c(=O)n1CC1CCCO1)c1ccc(F)cc1 (stereo not drawn)	inconclusive: 23.1 µM [rising, partial curve, poor fit]
